Laboratory results as given in US20230192860A1.
Results are given in words; binding and its absence hold for the method and conditions named. Some results given as binding are weak or reduced against the parent protein; the word gives no strength. Tags and fused reporters may be left off the sequences shown.

Target: T1, full length human PSGL-1 (SEQ ID NO: 3) expressed on heparan sulfate-deficient CHO cells (human) (UniProt Q14242)
T1 sequence: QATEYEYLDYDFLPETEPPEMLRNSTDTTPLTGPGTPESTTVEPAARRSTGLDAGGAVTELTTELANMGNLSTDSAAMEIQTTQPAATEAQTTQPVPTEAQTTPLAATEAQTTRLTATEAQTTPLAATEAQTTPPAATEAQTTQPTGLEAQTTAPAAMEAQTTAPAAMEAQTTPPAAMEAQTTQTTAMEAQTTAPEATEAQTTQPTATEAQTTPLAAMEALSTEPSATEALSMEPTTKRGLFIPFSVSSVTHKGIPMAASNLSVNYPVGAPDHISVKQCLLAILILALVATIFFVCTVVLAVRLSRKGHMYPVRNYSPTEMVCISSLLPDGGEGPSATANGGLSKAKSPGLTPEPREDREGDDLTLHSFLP
Assay: VISTA-Fc on CHO-PSGL-1 cells, pH 6.0

B1: human VISTA-Fc H2R mutant (histidines 153-155 replaced by arginine) (Fc fusion, not shown: a dimerising Fc or GST)
chain: FKVATPYSLYVCPEGQNVTLTCRLLGPVDKGHDVTFYKTWYRSSRGEVQTCSERRPIRNLTFQDLHLHHGGHQAANTSHDLAQRHGLESASDHHGNFSITMRNLTLLDSGLYCCLVVEIRRRRSEHRVHGAMELQVQTGKDAPSNCVVYPSSSQDSENITAA
binding: binds
